Laboratory results taken from PubChem BioAssay AID2685 (National Center for Advancing Translational Sciences (NCATS), 2010).
Some of the results follow. The main result of the screen is listed elsewhere. These columns were measured beside it and carry no call. Compounds called inactive in the main read-out are mostly missing here. The note in brackets gives the kind of curve behind each potency; many fits are weak.

Experiment: qHTS Assay for Lipid Storage Modulators in Drosophila S3 Cells;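 on cell number change: cells counted by Cell Tracker Red CMTPX staining in the red channel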
Details: BODIPY lipid droplet fluorescence, 18-24 h; for cell number change: measured here: cell count max response, cells fed with added oleic acid
Procedure, shortened: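 Laser-scanning cytometry quantifies lipid droplet accumulation (500–530 nm total intensity; droplet/cell object ratio) in oleic acid-fed (400 uM added) Drosophila S3 cells treated with a concentration series. 20 uM Triacsin C defined 100% inhibition.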

[1] = measured here: lipid fluorescence (Fed channel) AC50, cells fed with added oleic acid
[2] = measured here: cell number channel AC50, cells fed with added oleic acid

## O=C(O)CCC(=O)N1N=C(c2ccc(Br)cc2)CC1c1ccc(Br)cc1 (configuration not stated)
  cell number change: -3.38%
[1]
  AC50: 164 nM [falling, full curve, poor fit]

## COC(=O)c1cc(OC)c(OC)cc1NC(=S)N1CCCCC1
  cell number change: 25.3%
[2]
  AC50: 580 nM [rising, full curve, poor fit]

## COc1cc(C(C)=O)ccc1OCC(=O)Nc1ccc2nc(C)sc2c1
  cell number change: -31.9%
[2]
  AC50: 164 nM [falling, full curve]
[1]
  AC50: 116 nM [falling, full curve]

## CCN(CC)CCCNC(=O)c1c(O)c2cc(F)cc3c2n(c1=O)C(C)CC3 (configuration not stated)
  cell number change: 57.4%
[2]
  AC50: 29100 nM [rising, single point]

## S=c1sc(SCCOc2ccccc2)nn1-c1ccccc1
  cell number change: 7.1%
[1]
  AC50: 580 nM [rising, partial curve]

## O=C(O)c1cc(NC(=O)c2ccc3c(c2)C(=O)N(Cc2ccccc2)C3=O)cc(C(=O)O)c1
  cell number change: -6.49%
[1]
  AC50: 29100 nM [rising, single point]

## O=C(Nc1ccccc1C(=O)O)c1cccc(S(=O)(=O)Nc2ccc(Br)cc2)c1
  cell number change: -14.2%

## CCOC(=O)c1c(C)[nH]c(C)c1C(=O)CSc1nc(N)cc(=O)[nH]1
  cell number change: -42.6%
[2]
  AC50: 25900 nM [falling, single point]
[1]
  AC50: 29100 nM [falling, single point]

## CCOc1ncccc1C(=O)OCc1ccc(C(=O)OC)cc1
  cell number change: 9.79%

## CC(C)Cn1c(SCC(=O)NC(=O)NC2CCCC2)nc2ccccc21
  cell number change: -26.9%
[1]
  AC50: 6510 nM [rising, single point]

## COc1ccc(F)cc1S(=O)(=O)Nc1ccc(C)cc1
  cell number change: 27.9%
[1]
  AC50: 1840 nM [rising, partial curve, poor fit]

## CCC1CN(C(=O)NCc2cccc(OC)c2)c2cc(Cl)ccc2O1 (configuration not stated)
  cell number change: 19.1%
[1]
  AC50: 16400 nM [rising, single point]

## Cc1ccccc1C(=O)c1cccn1CC(=O)NCc1ccc(Cl)cc1
  cell number change: 29.9%
[2]
  AC50: 1840 nM [rising, full curve, poor fit]
[1]
  AC50: 3260 nM [rising, partial curve]

## O=C(OCC(=O)c1ccc(Cl)cc1Cl)c1cnccn1
  cell number change: 30.2%
[2]
  AC50: 65.1 nM [rising, full curve, poor fit]

## CC1CCCC(C)N1C(=O)Cn1c(SCC(=O)Nc2ccc3c(c2)OCO3)nc2ccccc21 (configuration not stated)
  cell number change: 3.82%
[2]
  AC50: 461 nM [rising, single point]

## CCC(c1nnnn1Cc1ccco1)N(Cc1cc2cc(C)cc(C)c2[nH]c1=O)CC1CCCO1 (configuration not stated)
  cell number change: 2.65%
[1]
  AC50: 1840 nM [rising, partial curve]

## CC(=O)c1cccc(OCc2cc(C(=O)N(C)CCC3CCOCC3)no2)c1
  cell number change: -19.3%
[1]
  AC50: 4610 nM [rising, partial curve, poor fit]

## COc1ccc(Cl)cc1-n1c(C)cc(C(=O)OCC(=O)N2CC(=O)Nc3ccccc32)c1C
  cell number change: 20%
[1]
  AC50: 6510 nM [rising, full curve]

## CCn1cc(C(=O)OC(C)C(=O)Nc2c(C)n(C)n(-c3ccccc3)c2=O)c(=O)c2ccc(C)nc21 (configuration not stated)
  cell number change: 48.1%
[2]
  AC50: 23100 nM [rising, single point]
[1]
  AC50: 11600 nM [rising, single point]

## Cc1ccc(C(C)(O)CS(=O)(=O)Cc2ccccc2Cl)cc1 (configuration not stated)
  cell number change: 52.3%

## CCOC(=O)c1c(C)[nH]c(C)c1C(=O)COC(=O)c1ccc(Cl)c(S(=O)(=O)NCc2ccccc2)c1
[2]
  AC50: 164 nM [rising, full curve, poor fit]
[1]
  AC50: 411 nM [rising, full curve]

## O=C(Nc1cc(Cl)ccc1F)C1=COCCO1
  cell number change: 38.2%
[2]
  AC50: 14600 nM [rising, single point]

## CCOC(=O)COn1c(=O)c(-c2ccco2)[n+]([O-])c2ccccc21
  cell number change: -33.1%

## Cc1ccc(S(=O)(=O)NCCc2ccc(S(N)(=O)=O)cc2)cc1
[2]
  AC50: 651 nM [rising, single point]
[1]
  AC50: 517 nM [rising, single point]

## CC(C)(C)c1ccc(OCc2ccc(C(=O)N/N=C/c3ccc(O)c(O)c3)cc2)cc1
  cell number change: -49.5%
[2]
  AC50: 5.17 nM [falling, full curve, poor fit]

## O=C(Nc1ccc2c(c1)OCO2)N1CCC(CO)(CC2CCCCO2)CC1 (configuration not stated)
  cell number change: -11.7%
[2]
  AC50: 6.51 nM [falling, full curve, poor fit]

## Cc1cc(=O)[nH]c(SCC(=O)Nc2ccccc2C#N)c1C#N
[2]
  AC50: 206 nM [falling, full curve, poor fit]
[1]
  AC50: 184 nM [falling, full curve, poor fit]

## CC(=O)Nc1ccc(C2=NN(CC#N)C(=O)SC2)cc1
  cell number change: 14%
[2]
  AC50: 6510 nM [rising, partial curve, poor fit]

## Nc1nnc(SCC(=O)c2ccc3ccccc3c2)s1
  cell number change: 59.2%
[2]
  AC50: 6510 nM [rising, partial curve, poor fit]
[1]
  AC50: 58 nM [rising, full curve]

## COc1ccc(C(=O)CNc2ccccc2C#N)cc1
  cell number change: 0.198%

## CCCN(CC1CC1)C(=O)COC(=O)c1ccc(CNS(=O)(=O)c2ccc(F)c(Cl)c2)cc1
  cell number change: 13.9%

## COCCCNC(=S)Nc1ccc(OC(F)F)cc1C
[1]
  AC50: 5620 nM [rising, single point]

## CCOC(=O)c1ccc(NC(=O)CSc2nc3c(c(=O)n2CC)SC(C)C3)cc1 (configuration not stated)
  cell number change: -41.4%
[1]
  AC50: 1640 nM [rising, partial curve]

## O=C(NC1CCCC1)C1CC(=O)N(C2CCCCCCC2)C1 (configuration not stated)
  cell number change: 10.1%
[2]
  AC50: 4.11 nM [rising, full curve, poor fit]

## COc1cccc(/C=N/NC(=O)CSc2nnc(C)n2-c2ccccc2)c1OC
  cell number change: -7.97%
[1]
  AC50: 20600 nM [falling, single point]

## O=c1cc(-c2ccccc2)c2ccccc2[nH]1
  cell number change: 15.3%
[1]
  AC50: 20600 nM [rising, partial curve]

## COc1ccc(CNC(=O)C(c2ccc(C)o2)N(Cc2cccs2)C(=O)Cc2cccs2)cc1 (configuration not stated)
  cell number change: -22.6%
[1]
  AC50: 14600 nM [falling, partial curve]
